For one assay, the target named is HSF1 (UniProt Q00613). As to the kind of experiment: DAPPL (digital affinity profiling via proximity ligation, sequencing). The note with it: 10 mM Tris-HCl pH 7.5, 50 mM NaCl, 1 mM DTT, 4% glycerol, room temperature, 30 min; GST-TFs on glutathione beads, 16-mer random dsDNA library, 0.1% …; high values mean tight binding; double strand, one strand shown; scale: fold enrichment (6-mer frequency, TF over GST control).

By UniProt entry, the sequences of proteins in these tests, tags left out. Where a name states a change or a piece, a line headed by the entry shows the natural chain unless it says otherwise.
UniProt Q00613: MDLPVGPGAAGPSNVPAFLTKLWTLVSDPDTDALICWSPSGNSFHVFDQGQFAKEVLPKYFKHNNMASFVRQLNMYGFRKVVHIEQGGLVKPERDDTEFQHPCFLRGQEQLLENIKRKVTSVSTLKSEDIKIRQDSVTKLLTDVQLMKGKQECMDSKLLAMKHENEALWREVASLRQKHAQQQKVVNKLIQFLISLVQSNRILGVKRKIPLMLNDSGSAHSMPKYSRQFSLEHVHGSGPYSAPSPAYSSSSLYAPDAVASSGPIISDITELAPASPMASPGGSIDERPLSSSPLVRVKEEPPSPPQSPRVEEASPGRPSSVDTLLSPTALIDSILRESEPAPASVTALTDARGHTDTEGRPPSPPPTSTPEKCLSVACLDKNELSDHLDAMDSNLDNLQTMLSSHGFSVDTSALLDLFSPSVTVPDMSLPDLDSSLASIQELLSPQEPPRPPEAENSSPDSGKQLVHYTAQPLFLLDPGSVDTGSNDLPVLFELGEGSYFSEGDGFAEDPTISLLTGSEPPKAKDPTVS

A further assay concerns the target T1, ELF2 (UniProt Q15723).
T1 sequence: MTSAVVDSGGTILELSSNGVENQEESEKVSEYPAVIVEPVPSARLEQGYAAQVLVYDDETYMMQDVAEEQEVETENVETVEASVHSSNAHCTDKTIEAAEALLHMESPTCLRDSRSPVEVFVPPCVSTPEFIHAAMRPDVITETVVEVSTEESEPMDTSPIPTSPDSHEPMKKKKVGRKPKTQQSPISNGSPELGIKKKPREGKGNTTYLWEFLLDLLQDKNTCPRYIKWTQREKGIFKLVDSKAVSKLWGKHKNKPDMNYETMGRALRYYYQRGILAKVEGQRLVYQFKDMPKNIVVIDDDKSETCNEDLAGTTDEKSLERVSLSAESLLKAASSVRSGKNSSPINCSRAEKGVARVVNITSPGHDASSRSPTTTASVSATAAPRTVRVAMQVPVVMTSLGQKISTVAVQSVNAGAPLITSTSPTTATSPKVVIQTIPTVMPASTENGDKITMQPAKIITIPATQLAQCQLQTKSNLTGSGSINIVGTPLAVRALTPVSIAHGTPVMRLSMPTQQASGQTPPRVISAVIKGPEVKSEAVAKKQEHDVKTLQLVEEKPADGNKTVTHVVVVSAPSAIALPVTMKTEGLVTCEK
The assay is described as above. The conditions noted are these: 10 mM Tris-HCl pH 7.5, 50 mM NaCl, 1 mM DTT, 4% glycerol, room temperature, 30 min; GST-TFs on glutathione beads, 16-mer random dsDNA library, 0.1% …; high values mean tight binding; double strand, one strand shown; scale: fold enrichment (6-mer frequency, TF over GST control).

This is a selection; strong and weak results do not stand in their true shares. For some of these results: At the low end of the ranking the order means little. The list shows a part of the results. For some of these results: The exact form of the protein is not confirmed.

On to GTCCAC, for which the binding signal with HSF1 worked out at 0.776; with ELF2, 0.986.
In the same order, the values of CAATCA are 0.987 and 1.05.
The like results for CAACAA were, in that order, 0.887 and 1.04.
The like results for CACCAT were, in that order, 0.862 and 1.04.
In the case of TCCCTC, the binding signal in the assay with HSF1 stood at 1.38; in the assay with ELF2, 1.41.
The like results for CTCCTG were, in that order, 1.52 and 1.5.
Consider GCCAAT, for which the results for the binding signal with HSF1 and in the assay with ELF2 were 0.942 and 1.04, respectively.
As for ATATGA, the binding signal is 0.999 with HSF1 and 1.01 in the assay with ELF2.
The like results for TCTCCC were, in that order, 1.65 and 1.59.
In the same order, the values of ATGCGG are 0.822 and 1.53.
The like results for TATGGC were, in that order, 1.2 and 1.16.
Consider CGATTT, for which the binding signal with HSF1 came out at 1.38; with ELF2, 1.24.
Take CGTTAC: the binding signal in the assay with HSF1 came out at 0.899; with ELF2, 1.1.
In the same order, the values of AGCAGC are 0.981 and 1.13.
For the sequence CTGCAC, the results for the binding signal with HSF1 and with ELF2 were 0.957 and 1.15, respectively.
The like results for TTTTAC were, in that order, 1.37 and 1.38.
The like results for TTCGAA were, in that order, 1.93 and 1.18.
The like results for CTAATC were, in that order, 3.22 and 1.24.
Regarding CATCCG, the binding signal came to 0.928 in the assay with HSF1 and 2.55 with ELF2.
The like results for TTTGAG were, in that order, 1.1 and 1.03.
Take CCCATG: the binding signal with HSF1 turned out to be 0.858; in the assay with ELF2 it was 0.995.
The like results for ACCGGA were, in that order, 0.934 and 4.42.
Take GATACG: the binding signal in the assay with HSF1 worked out at 0.856; in the assay with ELF2, 1.15.
The like results for ATTATT were, in that order, 1.8 and 1.21.
Turning to ACCAAT, the figures for the binding signal in the assay with HSF1 and with ELF2 were 1.16 and 1.27, respectively.
In the same order, the values of CGCCCG are 0.986 and 1.13.
Consider GCCTCC, for which the binding signal came out at 0.999 with HSF1 and 1.27 with ELF2.
In the same order, the values of GTCTTC are 1.17 and 1.56.
In the same order, the values of CGACTC are 1.37 and 1.33.
Take TGGACC: the binding signal turned out to be 0.863 with HSF1 and 1.05 with ELF2.
Take GGTTTT: the figures for the binding signal with HSF1 and with ELF2 were 0.993 and 1.12, respectively.
In the same order, the values of GTTCCG are 1.05 and 2.8.
Turning to TGTCCA, the binding signal in the assay with HSF1 came to 0.988; in the assay with ELF2, 1.1.
Take TACCGC: the values for the binding signal with HSF1 and with ELF2 were 0.94 and 1.12, respectively.
The like results for ATCCGC were, in that order, 1.58 and 1.98.
Turning to GGTCCT, the values for the binding signal in the assay with HSF1 and in the assay with ELF2 were 0.749 and 0.945, respectively.
In the same order, the values of CACGCC are 0.938 and 1.16.
On to TGGCTA, for which the binding signal with HSF1 stood at 1.25; with ELF2 it was 1.16.
As for TTTCCT, the figures for the binding signal with HSF1 and with ELF2 were 1.73 and 3.09, respectively.
TTTAAA: the binding signal turned out to be 1.64 in the assay with HSF1 and 1.21 in the assay with ELF2.
In the same order, the values of CTGTAA are 1.09 and 1.04.

The values above are taken from article PMC7862700.
